In this assay the target is T1, endogenous RBM38 (not stated (endogenous, cell line not named)) (UniProt Q9H0Z9).
T1 sequence: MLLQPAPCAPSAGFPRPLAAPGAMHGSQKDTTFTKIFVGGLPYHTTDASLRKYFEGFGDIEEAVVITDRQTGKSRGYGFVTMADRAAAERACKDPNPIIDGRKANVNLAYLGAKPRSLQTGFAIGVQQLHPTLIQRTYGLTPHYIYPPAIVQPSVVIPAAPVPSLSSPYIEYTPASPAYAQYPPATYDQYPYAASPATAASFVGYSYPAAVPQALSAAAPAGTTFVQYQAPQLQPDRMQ
The assay can be described thus: affinity purification with mass spectrometry.

Sequences of proteins named here, by UniProt entry; tags and fusion partners are left off.
UniProt O60573: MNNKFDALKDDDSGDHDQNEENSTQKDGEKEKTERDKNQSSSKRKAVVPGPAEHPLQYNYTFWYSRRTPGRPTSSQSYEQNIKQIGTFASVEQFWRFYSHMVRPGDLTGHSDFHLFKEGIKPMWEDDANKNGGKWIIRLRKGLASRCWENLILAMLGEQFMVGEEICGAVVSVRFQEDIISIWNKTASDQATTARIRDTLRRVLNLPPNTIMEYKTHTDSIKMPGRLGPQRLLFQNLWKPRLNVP

No constants are given. Whether binding was seen depends on the method and setting. In cells and extracts the contact can be indirect. A yes stands for co-enrichment or nearness to the bait. Other partners may have been found.

As for “endogenous eIF4E2 (from UniProt O60573 1-245)”, the binding result is “binds”.

The values are drawn from article doi:10.1101/2020.10.20.346569.
